Measured values from doi:10.1101/2025.09.03.674114.
No constants are given. Whether binding was seen depends on the method and setting. In cells and extracts the contact can be indirect. These calls come from enrichment with a bait or labelling near it, and not all partners need be listed.

By UniProt entry, the sequences of proteins in these tests, tags left out.
UniProt Q5S007: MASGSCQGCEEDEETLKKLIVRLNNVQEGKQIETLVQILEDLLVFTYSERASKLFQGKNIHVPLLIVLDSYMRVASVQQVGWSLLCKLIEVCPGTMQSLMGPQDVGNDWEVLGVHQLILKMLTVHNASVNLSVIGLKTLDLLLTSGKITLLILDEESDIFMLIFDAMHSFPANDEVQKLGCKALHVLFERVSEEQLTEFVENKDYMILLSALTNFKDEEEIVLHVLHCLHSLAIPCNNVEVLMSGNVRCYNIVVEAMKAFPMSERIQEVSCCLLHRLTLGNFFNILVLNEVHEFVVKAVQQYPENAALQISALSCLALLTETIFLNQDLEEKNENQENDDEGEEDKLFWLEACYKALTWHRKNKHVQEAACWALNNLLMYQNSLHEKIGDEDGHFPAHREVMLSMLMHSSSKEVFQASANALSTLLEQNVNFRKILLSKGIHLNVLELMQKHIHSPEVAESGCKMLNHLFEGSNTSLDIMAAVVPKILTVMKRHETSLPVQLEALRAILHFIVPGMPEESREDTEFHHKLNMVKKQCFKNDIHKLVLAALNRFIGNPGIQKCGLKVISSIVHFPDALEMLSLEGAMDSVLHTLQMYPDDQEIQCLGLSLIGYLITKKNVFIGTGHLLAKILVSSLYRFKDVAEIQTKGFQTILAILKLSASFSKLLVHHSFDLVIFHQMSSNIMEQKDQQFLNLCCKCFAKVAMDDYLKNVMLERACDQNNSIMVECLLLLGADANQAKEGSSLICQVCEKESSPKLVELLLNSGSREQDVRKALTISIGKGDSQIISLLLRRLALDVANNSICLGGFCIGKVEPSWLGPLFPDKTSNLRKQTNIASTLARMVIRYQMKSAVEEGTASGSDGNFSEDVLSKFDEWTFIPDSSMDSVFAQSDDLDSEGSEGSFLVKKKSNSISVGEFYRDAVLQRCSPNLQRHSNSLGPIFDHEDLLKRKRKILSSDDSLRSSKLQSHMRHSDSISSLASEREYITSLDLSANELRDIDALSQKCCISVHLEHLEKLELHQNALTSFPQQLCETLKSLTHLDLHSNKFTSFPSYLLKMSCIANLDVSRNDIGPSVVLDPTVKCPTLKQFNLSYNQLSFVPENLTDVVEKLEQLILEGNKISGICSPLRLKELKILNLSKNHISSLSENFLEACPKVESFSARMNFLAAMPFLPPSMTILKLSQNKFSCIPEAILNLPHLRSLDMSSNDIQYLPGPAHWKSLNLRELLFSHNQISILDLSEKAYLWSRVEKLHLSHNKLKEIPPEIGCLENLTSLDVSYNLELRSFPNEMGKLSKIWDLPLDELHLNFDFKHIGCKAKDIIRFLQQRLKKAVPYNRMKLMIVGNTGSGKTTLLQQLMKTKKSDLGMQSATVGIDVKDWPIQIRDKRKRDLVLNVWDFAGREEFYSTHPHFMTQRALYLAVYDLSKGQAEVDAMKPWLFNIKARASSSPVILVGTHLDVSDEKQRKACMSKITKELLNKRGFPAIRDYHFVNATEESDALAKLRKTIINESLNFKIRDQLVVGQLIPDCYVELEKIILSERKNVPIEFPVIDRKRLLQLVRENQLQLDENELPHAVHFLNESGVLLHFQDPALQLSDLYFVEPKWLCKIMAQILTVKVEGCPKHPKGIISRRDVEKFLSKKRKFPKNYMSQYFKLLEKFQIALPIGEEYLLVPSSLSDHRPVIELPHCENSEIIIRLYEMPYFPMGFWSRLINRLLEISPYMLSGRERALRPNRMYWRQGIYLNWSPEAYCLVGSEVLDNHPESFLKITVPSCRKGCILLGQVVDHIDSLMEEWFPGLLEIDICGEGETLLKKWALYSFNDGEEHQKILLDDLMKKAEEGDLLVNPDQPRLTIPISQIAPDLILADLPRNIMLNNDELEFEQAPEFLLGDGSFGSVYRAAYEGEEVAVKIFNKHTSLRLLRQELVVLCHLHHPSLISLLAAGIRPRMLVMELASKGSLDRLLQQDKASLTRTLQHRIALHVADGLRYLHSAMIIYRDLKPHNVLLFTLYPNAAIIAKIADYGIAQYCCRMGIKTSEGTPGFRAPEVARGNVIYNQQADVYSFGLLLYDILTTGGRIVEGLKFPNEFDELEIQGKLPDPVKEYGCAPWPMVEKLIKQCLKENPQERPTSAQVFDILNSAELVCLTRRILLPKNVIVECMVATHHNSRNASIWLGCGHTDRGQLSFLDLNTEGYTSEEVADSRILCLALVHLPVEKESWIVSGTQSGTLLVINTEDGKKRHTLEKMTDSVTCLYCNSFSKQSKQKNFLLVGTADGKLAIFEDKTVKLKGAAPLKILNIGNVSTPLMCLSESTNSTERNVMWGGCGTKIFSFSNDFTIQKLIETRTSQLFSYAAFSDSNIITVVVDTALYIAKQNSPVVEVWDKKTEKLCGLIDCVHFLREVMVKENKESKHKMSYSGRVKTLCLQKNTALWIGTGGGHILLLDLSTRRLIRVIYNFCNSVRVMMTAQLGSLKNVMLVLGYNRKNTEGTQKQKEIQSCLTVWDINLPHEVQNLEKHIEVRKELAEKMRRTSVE
UniProt Q92572: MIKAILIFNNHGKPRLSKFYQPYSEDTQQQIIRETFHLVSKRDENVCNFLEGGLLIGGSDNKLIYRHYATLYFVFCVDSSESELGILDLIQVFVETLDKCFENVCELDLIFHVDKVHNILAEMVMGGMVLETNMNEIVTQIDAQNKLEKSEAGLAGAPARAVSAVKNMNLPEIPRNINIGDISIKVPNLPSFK
UniProt Q8IY33: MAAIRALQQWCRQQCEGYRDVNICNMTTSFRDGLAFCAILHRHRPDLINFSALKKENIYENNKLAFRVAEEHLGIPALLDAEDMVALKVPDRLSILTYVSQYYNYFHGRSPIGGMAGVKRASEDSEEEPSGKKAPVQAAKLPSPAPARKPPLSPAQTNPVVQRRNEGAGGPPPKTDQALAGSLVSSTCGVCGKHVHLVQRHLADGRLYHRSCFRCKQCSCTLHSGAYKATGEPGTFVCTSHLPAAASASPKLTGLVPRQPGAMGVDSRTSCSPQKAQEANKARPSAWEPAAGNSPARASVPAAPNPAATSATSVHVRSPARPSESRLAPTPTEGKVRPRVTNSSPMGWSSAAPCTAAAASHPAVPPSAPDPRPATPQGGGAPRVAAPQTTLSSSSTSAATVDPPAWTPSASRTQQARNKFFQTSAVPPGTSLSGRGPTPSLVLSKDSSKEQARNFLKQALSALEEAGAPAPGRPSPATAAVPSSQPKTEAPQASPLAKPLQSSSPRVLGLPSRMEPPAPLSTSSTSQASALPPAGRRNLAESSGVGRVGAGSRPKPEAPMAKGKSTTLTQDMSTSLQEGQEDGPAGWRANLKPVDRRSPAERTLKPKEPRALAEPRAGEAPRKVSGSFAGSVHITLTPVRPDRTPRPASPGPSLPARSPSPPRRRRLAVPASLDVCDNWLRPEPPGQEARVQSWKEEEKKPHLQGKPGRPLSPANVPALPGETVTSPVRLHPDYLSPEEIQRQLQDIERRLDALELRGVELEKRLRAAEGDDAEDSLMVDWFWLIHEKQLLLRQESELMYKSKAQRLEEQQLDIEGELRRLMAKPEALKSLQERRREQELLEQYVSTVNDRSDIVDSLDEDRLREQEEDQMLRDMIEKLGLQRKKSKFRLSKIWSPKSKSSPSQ
UniProt P53618: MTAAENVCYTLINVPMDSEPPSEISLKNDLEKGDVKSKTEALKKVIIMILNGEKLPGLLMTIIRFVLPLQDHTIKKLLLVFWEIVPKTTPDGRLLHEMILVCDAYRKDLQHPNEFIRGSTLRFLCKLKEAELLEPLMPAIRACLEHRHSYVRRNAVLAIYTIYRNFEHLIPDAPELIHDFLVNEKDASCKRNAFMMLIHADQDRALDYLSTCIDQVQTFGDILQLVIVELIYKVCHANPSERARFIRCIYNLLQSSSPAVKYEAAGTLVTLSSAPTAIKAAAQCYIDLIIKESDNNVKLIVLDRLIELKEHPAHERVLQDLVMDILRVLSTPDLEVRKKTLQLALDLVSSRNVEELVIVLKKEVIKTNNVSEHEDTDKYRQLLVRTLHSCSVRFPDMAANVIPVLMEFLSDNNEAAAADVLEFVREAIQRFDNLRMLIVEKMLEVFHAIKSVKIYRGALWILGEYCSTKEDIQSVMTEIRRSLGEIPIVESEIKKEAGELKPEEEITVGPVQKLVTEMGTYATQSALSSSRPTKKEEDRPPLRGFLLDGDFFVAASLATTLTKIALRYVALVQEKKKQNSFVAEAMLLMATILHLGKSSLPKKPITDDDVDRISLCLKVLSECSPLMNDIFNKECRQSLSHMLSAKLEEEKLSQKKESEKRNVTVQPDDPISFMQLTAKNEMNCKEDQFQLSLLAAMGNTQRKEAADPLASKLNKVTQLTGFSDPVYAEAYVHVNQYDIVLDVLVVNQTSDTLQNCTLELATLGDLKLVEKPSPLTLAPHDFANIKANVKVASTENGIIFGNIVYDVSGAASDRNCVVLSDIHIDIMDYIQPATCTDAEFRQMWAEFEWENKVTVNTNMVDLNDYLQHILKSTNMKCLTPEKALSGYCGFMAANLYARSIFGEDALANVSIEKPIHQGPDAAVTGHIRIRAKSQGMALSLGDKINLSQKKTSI

B1: Kif24 (protein, UniProt Q5T7B8 1-1368)
chain: MASWLYECLCEAELAQYYSHFTALGLQKIDELAKITMKDYSKLGVHDMNDRKRLFQLIKIIKIMQEEDKAVSIPERHLQTSSLRIKSQELRSGPRRQLNFDSPADNKDRNASNDGFEMCSLSDFSANEQKSTYLKVLEHMLPDDSQYHTKTGILNATAGDSYVQTEISTSLFSPNYLSAILGDCDIPIIQRISHVSGYNYGIPHSCIRQNTSEKQNPWTEMEKIRVCVRKRPLGMREVRRGEINIITVEDKETLLVHEKKEAVDLTQYILQHVFYFDEVFGEACTNQDVYMKTTHPLIQHIFNGGNATCFAYGQTGAGKTYTMIGTHENPGLYALAAKDIFRQLEVSQPRKHLFVWISFYEIYCGQLYDLLNRRKRLFAREDSKHMVQIVGLQELQVDSVELLLEVILKGSKERSTGATGVNADSSRSHAVIQIQIKDSAKRTFGRISFIDLAGSERAADARDSDRQTKMEGAEINQSLLALKECIRALDQEHTHTPFRQSKLTQVLKDSFIGNAKTCMIANISPSHVATEHTLNTLRYADRVKELKKGIKCCTSVTSRNRTSGNSSPKRIQSSPGALSEDKCSPKKVKLGFQQSLTVAAPGSTRGKVHPLTSHPPNIPFTSAPKVSGKRGGSRGSPSQEWVIHASPVKGTVRSGHVAKKKPEESAPLCSEKNRMGNKTVLGWESRASGPGEGLVRGKLSTKCKKVQTVQPVQKQLVSRVELSFGNAHHRAEYSQDSQRGTPARPASEAWTNIPPHQKEREEHLRFYHQQFQQPPLLQQKLKYQPLKRSLRQYRPPEGQLTNETPPLFHSYSENHDGAQVEELDDSDFSEDSFSHISSQRATKQRNTLENSEDSFFLHQTWGQGPEKQVAERQQSLFSSPRTGDKKDLTKSWVDSRDPINHRRAALDHSCSPSKGPVDWSRENSTSSGPSPRDSLAEKPYCSQVDFIYRQERGGGSSFDLRKDASQSEVSGENEGNLPSPEEDGFTISLSHVAVPGSPDQRDTVTTPLREVSADGPIQVTSTVKNGHAVPGEDPRGQLGTHAEYASGLMSPLTMSLLENPDNEGSPPSEQLVQDGATHSLVAESTGGPVVSHTVPSGDQEAALPVSSATRHLWLSSSPPDNKPGGDLPALSPSPIRQHPADKLPSREADLGEACQSRETVLFSHEHMGSEQYDADAEETGLDGSWGFPGKPFTTIHMGVPHSGPTLTPRTGSSDVADQLWAQERKHPTRLGWQEFGLSTDPIKLPCNSENVTWLKPRPISRCLARPSSPLVPSCSPKTAGTLRQPTLEQAQQVVIRAHQEQLDEMAELGFKEETLMSQLASNDFEDFVTQLDEIMVLKSKCIQSLRSQLQLYLTCHGPTAAPEGTVPS
B2: Vps53 (protein, UniProt Q5VIR6 1-832)
chain: MMEEEELEFVEELEAVLQLTPEVQLAIEQVFPSQDPLDRADFNAVEYINTLFPTEQSLANIDEVVNKIRLKIRRLDDNIRTVVRGQTNVGQDGRQALEEAQKAIQQLFGKIKDIKDKAEKSEQMVKEITRDIKQLDHAKRHLTTSITTLNHLHMLAGGVDSLEAMTRRRQYGEVANLLQGVMNVLEHFHKYMGIPQIRQLSERVKAAQTELGQQILADFEEAFPSQGTKRPGGPSNVLRDACLVANILDPRIKQEIIKKFIKQHLSEYLVLFQENQDVAWLDKIDRRYAWIKRQLVDYEEKYGRMFPREWCMAERIAVEFCHVTRAELAKIMRTRAKEIEVKLLLFAIQRTTNFEGFLAKRFSGCTLTDGTLKKLESPPPSTNPFLEDEPTPEMEELATEKGDLDQPKKPKAPDNPFHGIVSKCFEPHLYVYIESQDKNLGELIDRFVADFKAQGPPKPNTDEGGAVLPSCADLFVYYKKCMVQCSQLSTGEPMIALTTIFQKYLREYAWKILSGNLPKTTTSSGGLTISSLLKEKEGSEVAKFTLEELCLICNILSTAEYCLATTQQLEEKLKEKVDVSLIERINLTGEMDTFSTVISSSIQLLVQDLDAACDPALTAMSKMQWQNVEHVGDQSPYVTSVILHIKQNVPIIRDNLASTRKYFTQFCVKFANSFIPKFITHLFKCKPISMVGAEQLLLDTHSLKMVLLDLPSISSQVVRKAPASYTKIVVKGMTRAEMILKVVMAPHEPLVVFVDNYIKLLTDCNTETFQKILDMKGLKRSEQSSMLELLRQRLPAPPSGAESSGSLSLTAPTPEQESSRIRKLEKLIKKRL
B3: AP3M2 (protein, UniProt P53677 1-418)
chain: MIHSLFLINSSGDIFLEKHWKSVVSRSVCDYFFEAQERATEAENVPPVIPTPHHYLLSVYRHKIFFVAVIQTEVPPLFVIEFLHRVVDTFQDYFGVCSEPVIKDNVVVVYEVLEEMLDNGFPLATESNILKELIKPPTILRTVVNTITGSTNVGDQLPTGQLSVVPWRRTGVKYTNNEAYFDVIEEIDAIIDKSGSTITAEIQGVIDACVKLTGMPDLTLSFMNPRLLDDVSFHPCVRFKRWESERILSFIPPDGNFRLLSYHVSAQNLVAIPVYVKHNISFRDSSSLGRFEITVGPKQTMGKTIEGVTVTSQMPKGVLNMSLTPSQGTHTFDPVTKMLSWDVGKINPQKLPSLKGTMSLQAGASKPDENPTINLQFKIQQLAISGLKVNRLDMYGEKYKPFKGIKYMTKAGKFQVRT
B4: Vps50 (protein, UniProt Q96JG6 1-964)
chain: MQKIKSLMTRQGLKSPQESLSDLGAIESLRVPGKEEFRELREQPSDPQAEQELINSIEQVYFSVDSFDIVKYELEKLPPVLNLQELEAYRDKLKQQQAAVSKKVADLILEKQPAYVKELERVTSLQTGLQLAAVICTNGRRHLNIAKEGFTQASLGLLANQRKRQLLIGLLKSLRTIKTLQRTDVRLSEMLEEEDYPGAIQLCLECQKAASTFKHYSCISELNSKLQDTLEQIEEQLDVALSKICKNFDINHYTKVQQAYRLLGKTQTAMDQLHMHFTQAIHNTVFQVVLGYVELCAGNTDTKFQKLQYKDLCTHVTPDSYIPCLADLCKALWEVMLSYYRTMEWHEKHDNEDTASASEGSNMIGTEETNFDRGYIKKKLEHGLTRIWQDVQLKVKTYLLGTDLSIFKYDDFIFVLDIISRLMQVGEEFCGSKSEVLQESIRKQSVNYFKNYHRTRLDELRMFLENETWELCPVKSNFSILQLHEFKFMEQSRSPSVSPSKQPVSTSSKTVTLFEQYCSGGNPFEIQANHKDEETEDVLASNGYESDEQEKSAYQEYDSDSDVPEELKRDYVDEQTGDGPVKSVSRETLKSRKKSDYSLNKVNAPILTNTTLNVIRLVGKYMQMMNILKPIAFDVIHFMSQLFDYYLYAIYTFFGRNDSLESTGLGLSSSRLRTTLNRIQESLIDLEVSADPTATLTAAEERKEKVPSPHLSHLVVLTSGDTLYGLAERVVATESLVFLAEQFEFLQPHLDAVMPAVKKPFLQQFYSQTVSTASELRKPIYWIVAGKALDYEQMLLLMANVKWDVKEIMSQHNIYVDALLKEFEQFNRRLNEVSKRVRIPLPVSNILWEHCIRLANRTIVEGYANVKKCSNEGRALMQLDFQQFLMKLEKLTDIRPIPDKEFVETYIKAYYLTENDMERWIKEHREYSTKQLTNLVNVCLGSHINKKARQKLLAAIDDIDRPKR
B5: Vps51 (protein, UniProt Q9UID3 1-782)
chain: MAAAAAAGPSPGSGPGDSPEGPEGEAPERRRKAHGMLKLYYGLSEGEAAGRPAGPDPLDPTDLNGAHFDPEVYLDKLRRECPLAQLMDSETDMVRQIRALDSDMQTLVYENYNKFISATDTIRKMKNDFRKMEDEMDRLATNMAVITDFSARISATLQDRHERITKLAGVHALLRKLQFLFELPSRLTKCVELGAYGQAVRYQGRAQAVLQQYQHLPSFRAIQDDCQVITARLAQQLRQRFREGGSGAPEQAECVELLLALGEPAEELCEEFLAHARGRLEKELRNLEAELGPSPPAPDVLEFTDHGGSGFVGGLCQVAAAYQELFAAQGPAGAEKLAAFARQLGSRYFALVERRLAQEQGGGDNSLLVRALDRFHRRLRAPGALLAAAGLADAATEIVERVARERLGHHLQGLRAAFLGCLTDVRQALAAPRVAGKEGPGLAELLANVASSILSHIKASLAAVHLFTAKEVSFSNKPYFRGEFCSQGVREGLIVGFVHSMCQTAQSFCDSPGEKGGATPPALLLLLSRLCLDYETATISYILTLTDEQFLVQDQFPVTPVSTLCAEARETARRLLTHYVKVQGLVISQMLRKSVETRDWLSTLEPRNVRAVMKRVVEDTTAIDVQVGLLYEEGVRKAQSSDSSKRTFSVYSSSRQQGRYAPSYTPSAPMDTNLLSNIQKLFSERIDVFSPVEFNKVSVLTGIIKISLKTLLECVRLRTFGRFGLQQVQVDCHFLQLYLWRFVADEELVHLLLDEVVASAALRCPDPVPMEPSVVEVICERG
B6: GOLGA3 (protein, UniProt Q08378 1-1498)
chain: MDGASAEQDGLQEDRSHSGPSSLPEAPLKPPGPLVPPDQQDKVQCAEVNRASTEGESPDGPGQGGLCQNGPTPPFPDPPSSLDPTTSPVGPDASPGVAGFHDNLRKSQGTSAEGSVRKEALQSLRLSLPMQETQLCSTDSPLPLEKEEQVRLQARKWLEEQLKQYRVKRQQERSSQPATKTRLFSTLDPELMLNPENLPRASTLAMTKEYSFLRTSVPRGPKVGSLGLPAHPREKKTSKSSKIRSLADYRTEDSNAGNSGGNVPAPDSTKGSLKQNRSSAASVVSEISLSPDTDDRLENTSLAGDSVSEVDGNDSDSSSYSSASTRGTYGILSKTVGTQDTPYMVNGQEIPADTLGQFPSIKDVLQAAAAEHQDQGQEVNGEVRSRRDSICSSVSLESSAAETQEEMLQVLKEKMRLEGQLEALSLEASQALKEKAELQAQLAALSTKLQAQVECSHSSQQRQDSLSSEVDTLKQSCWDLERAMTDLQNMLEAKNASLASSNNDLQVAEEQYQRLMAKVEDMQRSMLSKDNTVHDLRQQMTALQSQLQQVQLERTTLTSKLKASQAEISSLQSVRQWYQQQLALAQEARVRLQGEMAHIQVGQMTQAGLLEHLKLENVSLSQQLTETQHRSMKEKGRIAAQLQGIEADMLDQEAAFMQIQEAKTMVEEDLQRRLEEFEGERERLQRMADSAASLEQQLEQVKLTLLQRDQQLEALQQEHLDLMKQLTLTQEALQSREQSLDALQTHYDELQARLGELQGEAASREDTICLLQNEKIILEAALQAAKSGKEELDRGARRLEEGTEETSETLEKLREELAIKSGQVEHLQQETAALKKQMQKIKEQFLQQKVMVEAYRRDATSKDQLISELKATRKRLDSELKELRQELMQVHGEKRTAEAELSRLHREVAQVRQHMADLEGHLQSAQKERDEMETHLQSLQFDKEQMVAVTEANEALKKQIEELQQEARKAITEQKQKMRRLGSDLTSAQKEMKTKHKAYENAVGILSRRLQEALAAKEAADAELGQLRAQGGSSDSSLALHERIQALEAELQAVSHSKTLLEKELQEVIALTSQELEESREKVLELEDELQESRGFRKKIKRLEESNKKLALELEHEKGKLTGLGQSNAALREHNSILETALAKREADLVQLNLQVQAVLQRKEEEDRQMKHLVQALQASLEKEKEKVNSLKEQVAAAKVEAGHNRRHFKAASLELSEVKKELQAKEHLVQKLQAEADDLQIREGKHSQEIAQFQAELAEARAQLQLLQKQLDEQLSKQPVGNQEMENLKWEVDQKEREIQSLKQQLDLTEQQGRKELEGLQQLLQNVKSELEMAQEDLSMTQKDKFMLQAKVSELKNNMKTLLQQNQQLKLDLRRGAAKTRKEPKGEASSSNPATPIKIPDCPVPASLLEELLRPPPAVSKEPLKNLNSCLQQLKQEMDSLQRQMEEHALTVHESLSSWTPLEPATASPVPPGGHAGPRGDPQRHSQSRASKEGPGE

Target: 3xFLAG-turboID-LRRK2 (Leucine-rich repeat kinase 2) (UniProt Q5S007)
Assay: proximity labelling

binding, binds:
AP3S1 (from UniProt Q92572 1-193), MICALL2 (from UniProt Q8IY33 1-904), COPB1 (from UniProt P53618 1-953), CENPE (from UniProt Q02224 1-2701), MACF1 (from UniProt Q9UPN3 1-7388), B1, B2, B3, B4, B5, B6
